These are yes or no findings as the source states them, for the method shown.
Target: single-stranded DNA binding protein of Bacillus anthracis (SSBBA) (Bacillus anthracis) (UniProt Q81JI3)
Experiment: SEC; both purified

B1: single-stranded DNA binding protein of Bacillus anthracis (SSBBA) (protein, UniProt Q81JI3 1-172)
chain: MNRVILVGRLTKDPDLRYTPNGVAVATFTLAVNRAFANQQGEREADFINCVIWRKQAENVANYLKKGSLAGVDGRLQTRNYEGQDGKRVYVTEVLAESVQFLEPRNGGGEQRGSFNQQPSGAGFGNQSSNPFGQSSNSGNQGNQGNSGFTKNDDPFSNVGQPIDISDDDLPF
For B1, the binding was “no binding (tested: 100 μg/ml)”.
